# According to PMC7093135:
# Chains of the proteins cited; added tags and fusions are not shown. Residues count along the entry.
# UniProt P19783, residues 23-169: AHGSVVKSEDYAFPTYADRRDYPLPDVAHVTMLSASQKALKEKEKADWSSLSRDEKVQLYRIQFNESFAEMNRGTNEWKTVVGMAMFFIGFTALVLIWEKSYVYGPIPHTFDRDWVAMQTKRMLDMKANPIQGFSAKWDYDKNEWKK
# UniProt P63168: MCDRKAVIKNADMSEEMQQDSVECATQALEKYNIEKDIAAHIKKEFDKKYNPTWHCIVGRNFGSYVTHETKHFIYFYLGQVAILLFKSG
# UniProt P62821: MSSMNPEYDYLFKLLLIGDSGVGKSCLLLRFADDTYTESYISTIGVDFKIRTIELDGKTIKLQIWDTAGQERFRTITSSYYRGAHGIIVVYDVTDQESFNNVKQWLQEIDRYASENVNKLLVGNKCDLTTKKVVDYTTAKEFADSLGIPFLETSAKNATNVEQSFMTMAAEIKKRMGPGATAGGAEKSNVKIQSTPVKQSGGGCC
# Results are given in words; binding and its absence hold for the method and conditions named. In cells and extracts the contact can be indirect. Some results given as binding are weak or reduced against the parent protein; the word gives no strength.
# Columns and labels:
# [1] = target: mitochondrial cytochrome oxidase Cox4i1 (mouse (endogenous in DC2.4)) (UniProt P19783); assay: co-IP; forward and reverse co-IP of endogenous Dynll1 and Cox4i1 from RIPA lysates of DC2.4 cells (no infection or infected with L. monocytogenes), protein A-agarose, Western blot
# [2] = target: Dynein light chain 1 (Dynll1) (mouse (endogenous in DC2.4)) (UniProt P63168); assay: proximity ligation; Duolink PLA on fixed DC2.4 cells (no infection or infected with L. monocytogenes for 6.5 h), primary antibodies overnight at 4°C; negative controls with one antibody only
Molecule,binding [1],binding [2]
Dynein light chain 1 (Dynll1) (from UniProt P63168 1-89),binds,–
Rab1a (from UniProt P62821 1-205),–,binds
"Snx2 (protein, UniProt Q9CWK8 1-519) MAAEREPPPLGDVKPTDFEELEDGEDLFTSTVSTLESSPSSPEPASLPAEDISANSNGSKPVEVVLDDDREDLFAEATEEVSLDSPERELILSSEPSPAVTPVTPTTLIAPRIESKSISAPVIFDRSRDEIEEEANGDIFDIEIGVSDPEKVGDGMNAYMAYRVTTKTSLSMFSKSEFSVKRRFSDFLGLHSKLASKYLHVGYIVPPAPEKSIVGMTKVKVGKEDSSSTEFVEKRRAALERYLQRTVKHPTLLQDPDLRQFLESSELPRAVNTQALSGAGILRMVNKAADAVNKMTIKMNESDAWFEEKQQQFENLDQQLRKLHASVEALVCHRKELSANTAAFAKSAAMLGNSEDHTALSRALSQLAEVEEKIDQLHQEQAFADFYMFSELLSDYIRLIAAVKGVFDHRMKCWQKWEDAQITLLKKRETEAKMMVANKPDKIQQAKNEIREWEAKVQQGERDFEQISKTIRKEVGRFEKERVKDFKAVIIKYLESLVQTQQQLIKYWEAFLPEAKAIA",–,binds
"Canx (protein, UniProt P35564 21-591) HDGHDDDAIDIEDDLDDVIEEVEDSKSKSDASTPPSPKVTYKAPVPTGEVYFADSFDRGSLSGWILSKAKKDDTDDEIAKYDGKWEVDEMKETKLPGDKGLVLMSRAKHHAISAKLNKPFLFDTKPLIVQYEVNFQNGIECGGAYVKLLSKTAELSLDQFHDKTPYTIMFGPDKCGEDYKLHFIFRHKNPKTGVYEEKHAKRPDADLKTYFTDKKTHLYTLILNPDNSFEILVDQSVVNSGNLLNDMTPPVNPSREIEDPEDRKPEDWDERPKIADPDAVKPDDWDEDAPSKIPDEEATKPEGWLDDEPEYIPDPDAEKPEDWDEDMDGEWEAPQIANPKCESAPGCGVWQRPMIDNPNYKGKWKPPMIDNPNYQGIWKPRKIPNPDFFEDLEPFKMTPFSAIGLELWSMTSDIFFDNFIISGDRRVVDDWANDGWGLKKAADGAAEPGVVLQMLEAAEERPWLWVVYILTVALPVFLVILFCCSGKKQSNAMEYKKTDAPQPDVKDEEGKEEEKNKRDEEEEEEKLEEKQKSDAEEDGVTGSQDEEDSKPKAEEDEILNRSPRNRKPRRE",–,binds
